Experimental data as given in publication PMC8593108.
These are yes or no findings as the source states them, for the method shown. Binding calls can cover weak binding; strength is not graded here. For some of these results: In cells and extracts the contact can be indirect.

Chains of the proteins cited; added tags and fusions are not shown. Lines headed by an entry give the natural chain unless they say otherwise; changes in a name come on top. Residues count along the entry.
UniProt Q9I4P9: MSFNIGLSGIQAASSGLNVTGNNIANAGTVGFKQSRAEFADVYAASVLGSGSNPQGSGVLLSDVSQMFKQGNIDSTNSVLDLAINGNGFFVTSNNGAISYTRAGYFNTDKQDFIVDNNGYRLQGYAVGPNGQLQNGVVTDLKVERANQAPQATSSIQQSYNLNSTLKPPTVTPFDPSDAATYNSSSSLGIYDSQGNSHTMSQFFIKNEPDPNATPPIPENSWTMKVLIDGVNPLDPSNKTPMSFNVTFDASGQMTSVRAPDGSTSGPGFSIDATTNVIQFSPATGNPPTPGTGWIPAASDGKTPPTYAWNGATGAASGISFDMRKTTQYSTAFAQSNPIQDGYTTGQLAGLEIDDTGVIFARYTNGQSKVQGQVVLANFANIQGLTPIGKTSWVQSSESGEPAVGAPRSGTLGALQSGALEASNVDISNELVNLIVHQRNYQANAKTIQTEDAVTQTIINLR
UniProt P56480, residues 47-529: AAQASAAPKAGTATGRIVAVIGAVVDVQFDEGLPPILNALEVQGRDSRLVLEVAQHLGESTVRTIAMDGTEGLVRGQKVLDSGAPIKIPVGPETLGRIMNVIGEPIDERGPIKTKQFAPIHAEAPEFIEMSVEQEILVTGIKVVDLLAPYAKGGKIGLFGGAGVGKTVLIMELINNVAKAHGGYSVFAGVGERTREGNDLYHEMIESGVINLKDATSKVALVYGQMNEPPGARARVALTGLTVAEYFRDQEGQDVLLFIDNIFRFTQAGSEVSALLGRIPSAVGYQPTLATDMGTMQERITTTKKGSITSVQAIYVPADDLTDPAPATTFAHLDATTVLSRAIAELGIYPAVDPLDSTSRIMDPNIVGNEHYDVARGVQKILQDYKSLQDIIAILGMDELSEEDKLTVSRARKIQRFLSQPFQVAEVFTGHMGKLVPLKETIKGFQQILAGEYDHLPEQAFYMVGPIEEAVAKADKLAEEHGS

Columns and labels:
[1] = molecular target: recombinant Pseudomonas aeruginosa wild-type flagellar hook protein FlgE (Pseudomonas aeruginosa) (UniProt Q9I4P9); experiment: pull-down; 500 μg purified His-tagged FlgE or FlgEM on 30 μl Ni-NTA beads, incubated 8 h at 4°C with 200 μg plasma membrane proteins from HUVECs or SVECs; five washes; blot with anti-ATP5B antibody, anti-His as loading control; only the target purified
[2] = molecular target: ATP synthase subunit β (ATP5B), mouse, ectopic on SVEC plasma membrane (mouse (endogenous in SVEC)) (UniProt P56480); experiment: flow cytometry on cells; HUVECs and SVECs in ice-cold PBS (2% FBS) with FlgE or FlgEM at 10 μg/ml, 40 min, 4°C, stained with FITC-anti-His; in blocking settings cells pretreated with anti-ATP5B antibodies (50 μg/ml), isotype IgG or Pc-B/Pc-F peptides (50 μM); only the binder purified
[3] = molecular target: ATP synthase subunit β (ATP5B), human, ectopic on HUVEC plasma membrane (human (endogenous in HUVEC)) (UniProt P06576); experiment: as above

Substance	binding [1]	binding [2]	binding [3]
ATP synthase subunit β (ATP5B), human, ectopic on HUVEC plasma membrane (from UniProt P06576 48-529)	binds	–	–
ATP synthase subunit β (ATP5B), mouse, ectopic on SVEC plasma membrane (from UniProt P56480 47-529)	binds	–	–
recombinant Pseudomonas aeruginosa wild-type flagellar hook protein FlgE (from UniProt Q9I4P9)	–	binds	binds
